At least one peptide structure holds a part that was inferred or is arguable (an end, a ring closure or a residue). Where a SMILES comes first, the peptide text is derived from it.
Test system: HLA class II DRB1 alleles
Assay: ProImmune REVEAL Class II HLA-peptide binding assay
Parameters: species or system human
Conditions: good binders score >=15% of positive control
[1] = 15mers of FIG. 22, DRB1*0101, *1501, *0301, *0401, *0701
[2] = 15mers of FIG. 21, DRB1*0101, *1501, *0301, *0401, *0701, *1101, *1301

Row | SMILES | binding in the ProImmune REVEAL assay [1] | binding in the ProImmune REVEAL assay [2]
1 | CC(C)C[C@H](NC(=O)[C@@H](NC(=O)[C@@H](NC(=O)[C@H](CCCCN)NC(=O)[C@H](CC(=O)O)NC(=O)[C@H](C)N)C(C)C)C(C)C)C(=O)N[C@H](C(=O)N[C@@H](C)C(=O)N[C@@H](Cc1ccc(O)cc1)C(=O)N[C@@H](Cc1ccccc1)C(=O)N[C@@H](C)C(=O)N[C@@H](C)C(=O)N[C@@H](CC(=O)O)C(=O)N[C@@H](CC(=O)O)C(=O)N[C@@H](CCCCN)C(=O)O)C(C)C [Peptide 54.2] (H-ADKVVLVAYFAADDK-OH; N-terminus and C-terminus assumed) | negative | 
2 | CC[C@H](C)[C@H](NC(=O)[C@H](CC(=O)O)NC(=O)[C@H](CC(=O)O)NC(=O)[C@H](CO)NC(=O)[C@@H](NC(=O)[C@H](CCCCN)NC(=O)[C@H](CCC(N)=O)NC(=O)[C@H](CCCCN)NC(=O)[C@H](CC(C)C)NC(=O)[C@H](CC(C)C)NC(=O)[C@H](CC(C)C)NC(=O)CNC(=O)[C@H](CO)NC(=O)[C@@H](N)CCCNC(=N)N)C(C)C)C(=O)N[C@H](C(=O)O)[C@@H](C)O [Peptide 36.2] (H-RSGLLLKQKVSDDIT-OH; N-terminus and C-terminus assumed) |  | negative
3 | CC[C@H](C)[C@H](NC(=O)[C@H](CC(=O)O)NC(=O)[C@H](CC(=O)O)NC(=O)[C@H](CO)NC(=O)[C@@H](NC(=O)[C@H](CCCCN)NC(=O)[C@H](CCC(N)=O)NC(=O)[C@H](CCCCN)NC(=O)[C@H](CC(C)C)NC(=O)[C@H](CC(C)C)NC(=O)[C@H](CC(C)C)NC(=O)CNC(=O)[C@@H](N)CO)C(C)C)C(=O)N[C@H](C(=O)N[C@@H](Cc1ccc(O)cc1)C(=O)O)[C@@H](C)O [Peptide L6-1] (H-SGLLLKQKVSDDITY-OH; N-terminus and C-terminus assumed) |  | negative
4 | CC[C@H](C)[C@H](NC(=O)[C@H](CCCCN)NC(=O)[C@H](Cc1c[nH]c2ccccc12)NC(=O)[C@@H](NC(=O)[C@H](Cc1ccc(O)cc1)NC(=O)[C@H](CC(=O)O)NC(=O)CNC(=O)[C@@H](N)CCC(=O)O)C(C)C)C(=O)N[C@@H](CO)C(=O)N[C@@H](CCC(=O)O)C(=O)N[C@@H](Cc1ccccc1)C(=O)N[C@@H](Cc1ccc(O)cc1)C(=O)NCC(=O)N[C@@H](CCCNC(=N)N)C(=O)N[C@@H](CCCCN)C(=O)O [Peptide 34.2] (H-EGDYVWKISEFYGRK-OH; N-terminus and C-terminus assumed) |  | negative
5 | CC[C@H](C)[C@H](NC(=O)[C@H](CCC(N)=O)NC(=O)[C@H](CCCNC(=N)N)NC(=O)CNC(=O)[C@@H](NC(=O)[C@@H](NC(=O)[C@@H](NC(=O)[C@H](CO)NC(=O)CN)[C@@H](C)O)C(C)C)C(C)C)C(=O)N[C@@H](CC(C)C)C(=O)N[C@@H](CCCCN)C(=O)N[C@@H](CO)C(=O)N[C@@H](C)C(=O)N[C@@H](C)C(=O)NCC(=O)O [Peptide 49.2.1] (H-GSTVVGRQILKSAAG-OH; N-terminus and C-terminus assumed) | negative | 
